Measurements: PubChem BioAssay AID493014 (National Center for Advancing Translational Sciences (NCATS), 2011)
Screen size: about 340,000 compounds; about 170 (0.05%) were called active. This list was built around the results that the source calls inconclusive (neither active nor inactive); the mix of calls is not that of the screen. Calls follow the shape of the dose curve; as a rule, active = well fitted inhibition curve with a large enough effect in the signal ratio, with a control signal flat (not every such curve was filed as active); inconclusive = small, poorly fitted or top-dose-only effect, or effect the other way, or a change in a side signal; inactive = flat fitted curve, though single readings scatter; the % refers to the signal ratio. A potency beside an inconclusive call is a rough fit, not a confirmed value.

Assay: qHTS Assay to Find Inhibitors of Chronic Active B-Cell Receptor Signaling;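 as to activity change, negative = inhibition: plate controls were basal doxycycline-induced cells for no effect and cells given 10 µM MG132 for full effect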
Conditions: ABC-DLBCL IkBa-CBG/CBR reporter, luminescence ratio (green luciferase fused to IkBa over red control in TMD8 lymphoma cells), 4 h; activity change, negative = inhibition: at 46.1 µM (top of the series) unless noted
Summary of the method: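 Doxycycline induced both beetle luciferases in TMD8 lymphoma cells; IKK-driven degradation limits the IkappaBalpha-fused green signal, while red luminescence normalises for cell number and nonspecific effects. Compounds tested up to 46 uM, 4 hrs.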
Potency is read from the fitted curve at half-maximal effect.

| SMILES | activity change, negative = inhibition | Potency |
| --- | --- | --- |
| S=C(Nc1cccc(Cl)c1Cl)N1CCC2(CC1)OCCO2 | inconclusive: 2.45% |  |
| O=C(COC(=O)c1cnccn1)c1ccc(Cl)c([N+](=O)[O-])c1 | inconclusive: 6.23% |  |
| O=C(c1ccccc1)n1c(=S)nc2ccccn21 | inconclusive: -16.6% |  |
| CC1CC(C)CN(C(=O)C(NS(=O)(=O)c2ccc(Br)s2)c2ccccc2)C1 (stereo not given) | inconclusive: 0.0234% |  |
| Cc1cc(NC(=O)c2cccs2)ncc1NC(=O)C(C)C | inconclusive: -12.7% |  |
| O=C(CSc1ccc(Br)cc1)Nc1ccccc1N1CCOCC1 | inconclusive: 2.65% |  |
| Cc1cccc(-c2cc3nc4c(c(N5CCOCC5)n3n2)CCCC4)c1 | inactive: 1.97% |  |
| CN(/C=C/C(=O)C(F)(F)C(F)(F)F)Cc1ccccc1 | inconclusive: 6.18% |  |
| Cc1c(C(=O)N2CCCCC2)nnn1-c1nonc1N | inconclusive: -1.11% |  |
| COc1ccc(S(=O)(=O)Nc2ccc3c(c2)C(=O)N([C@H](C)CO)C[C@H](C)[C@@H](CN(C)C(=O)NC2CCCCC2)O3)cc1 | inconclusive: 2.35% |  |
| Cc1ccccc1N=CC=C1OC(C)(C)C(C)(C)O1 | inconclusive: -18.5% |  |
| CSc1nc2c(cnn2-c2ccccc2)c(=O)n1N |  | inconclusive: 20 µM [falling, single point] |
| COc1ccc(/C=N/NC(=O)CN(C)C(=O)OCc2ccccc2)cc1OC | inconclusive: 3.45% |  |
| COc1cc(/C=C/C(=O)OCC(=O)NC(=O)NC(C)C)cc(OC)c1OC |  | inconclusive: 22.4 µM [falling, partial curve, poor fit] |
| COc1cc(S(=O)(=O)N2CCCCC2)ccc1NC(=O)/C=C/c1ccccc1 |  | inconclusive: 1.03 µM [falling, full curve, poor fit] |
| Cc1cccc(/C(N)=N/OC(=O)c2ccc(Br)o2)c1 | inconclusive: 0.284% |  |
| Cc1cc(Br)c(OCC(=O)NN)c2c1CCC2 |  | inconclusive: 8.91 µM [falling, partial curve, poor fit] |
| N#CC(/C(=N/S(=O)(=O)c1cccs1)c1ccccc1)c1nc2ccccc2[nH]1 (stereo not given) | inconclusive: 13.5% |  |
| CSC1=NC2(CCCCC2)CC12C=CC(=O)C=C2 |  | inconclusive: 15.8 µM [falling, partial curve, poor fit] |
| Cc1cc(C)cc(NC(=O)N2CCCC2C(=O)NCc2ccco2)c1 (stereo not given) | inconclusive: -18.7% |  |

| SMILES | activity change, negative = inhibition | Potency |
| --- | --- | --- |
| FC(F)(F)c1nc2ccccc2nc1N/N=C/c1c(Cl)cccc1Cl | inconclusive: -0.616% |  |
| O=S(=O)(c1ccccc1)N1CCN=C1SCc1ccccc1Cl | inconclusive: -0.183% |  |
| CC(=O)Nc1ccc(S(=O)(=O)N(C)CC(=O)NC2CCCC(C)C2C)cc1 (stereo not given) | inconclusive: 9.85% |  |
| CSc1nc2ccc(NC(=O)c3c(F)cccc3F)cc2s1 | inconclusive: 10.3% |  |
| CCNC(=O)NC(=O)CSc1ccc(S(=O)(=O)N2CCCCC2)cn1 | inconclusive: -1.03% |  |
| FC(F)(F)c1nnc2c(Sc3ccccc3)nc3ccccc3n12 |  | inconclusive: 23.1 µM [falling, partial curve] |
| COc1ccccc1/C=C1\SC(=S)N(CCC(=O)NC2=NCCS2)C1=O |  | inconclusive: 2.06 µM [falling, partial curve, poor fit] |
| Cc1ccc(NC(=O)c2cc(S(=O)(=O)N3CCOCC3)cn2C)cc1Cl | inconclusive: 7.05% |  |
| COC(=O)C1=C(C)N(c2ccc(S(N)(=O)=O)cc2)C(=O)C1 | inactive: 1.73% |  |
| C(=N\Nc1nc(N2CCOCC2)nc(N2CCOCC2)n1)/c1ccco1 | inactive: 0.825% |  |
| CN(c1cccc(NC(=O)c2ccc(Cl)c(S(=O)(=O)Nc3ccccc3)c2)c1)S(C)(=O)=O |  | inconclusive: 23.1 µM [falling, single point] |
| Cc1cc(C)c2[nH]c(O)c(N=Nc3ccc(C(=O)O)cc3)c2c1 |  | inconclusive: 3.55 µM [falling, partial curve] |
| Cc1cc2nc(SCCOC(=O)Nc3cccc(Cl)c3)nc(C)c2cc1C | inconclusive: 2.16% |  |
| O=C1C(Cl)=C(N2CCCCCC2)C(=O)N1c1ccccc1 |  | inconclusive: 15.8 µM [falling, partial curve] |
| COc1ccccc1/C=N/NC(=O)c1ccc2c(c1)OCO2 |  | inconclusive: 10 µM [falling, partial curve] |
| CC(Sc1ncnc2ccccc12)C(=O)Nc1ccc2c(c1)OCO2 (stereo not given) | inconclusive: 1.31% |  |
| CCN(CC)CCCn1c2c(c(SCC(=O)Nc3nccs3)nc1=O)CCC2 | inconclusive: 3.45% |  |
| CC(C)c1nc(SCC(=O)N2CCCC2)c2ccccc2n1 | inconclusive: -15.4% |  |
| CN(Cc1ccccc1)C(=O)c1ccc(NC(=O)Cc2cccc(NC(=O)C3CCN(C(=O)C4CC4)CC3)c2)cc1 | inconclusive: -8.19% |  |
| O=c1c2cnn(-c3ccccc3)c2ncn1Cc1ccccn1 | inactive: 11% |  |

A different layout for 2 compounds above:
SMILES | activity change, negative = inhibition | Potency
FC(F)(F)c1nc2ccccc2nc1N/N=C/c1c(Cl)cccc1Cl | inconclusive: -0.616% | 
COc1ccccc1/C=N/NC(=O)c1ccc2c(c1)OCO2 |  | inconclusive: 10 µM [falling, partial curve]
